Several values for one entry are separate records, joined by “and”; a condition that tells them apart may be missing. Identical values can stand only once. Counter-ions that a name gives are not always drawn.

The nature of the first data set: Experimental velocity of single fragrance ingredients (60 cm divided by time to olfactory detection) from model powder detergent in water. The note with it: Table 1, Class 1 ingredients, 10 g model powder detergent in 2 liters of water, 25° C.
For `CCOC(=O)[C@@H]1C[C@@H]2C=C[C@H]1C2` [(1R,2R,4R)-ethyl bicyclo[2.2.1]hept-5-ene-2-carboxylate], the “EV (Experimental velocity)” value turned out to be 10 cm/s.
As for `COCCc1ccccc1` [(2-methoxyethyl)benzene], the “EV (Experimental velocity)” value was determined as 9 cm/s.
Same read-out and setting: the same measure for `CCC[C@H]1CCO[C@@H](C)S1` [(2R,4S)-2-methyl-4-propyl-1,3-oxathiane]: 13 cm/s; for `CC(C)=C[C@H]1C[C@@H](C)CCO1` [(2R,4S)-4-methyl-2-(2-methylprop-1-en-1-yl)tetrahydro-2H-pyran]: 12 cm/s; for `CC1C(C)(C)C2CC[C@@H]3CC(C)(C)O[C@@H]3C2C1(C)C` (stereo partly drawn) [(3aR,8bS)-2,2,6,6,7,8,8-heptamethyldecahydro-2H-indeno[4,5-b]furan]: 12 cm/s.

The data set is the same for the next values; noted with them: Table 2, Class 2 ingredients, 10 g model powder detergent in 2 liters of water, 25° C.
In the case of `CC1(C)[C@@H]2CC[C@@]1(C)[C@H](O)C2` [(1R,2R,4R)-1,7,7-trimethylbicyclo[2.2.1]heptan-2-ol], the “EV (Experimental velocity)” value worked out at 7 cm/s.
`CC1=C[C@@H](C)[C@@H](C=O)CC1` [(1S,2R)-2,4-dimethylcyclohex-3-ene-1-carbaldehyde]: the “EV (Experimental velocity)” value is 8 cm/s.
Still for that read-out and setting: the same measure for `CC(C)(C)[C@@H]1CCCC[C@@H]1O` [(1S,2S)-2-(tert-butyl)cyclohexan-1-ol]: 6 cm/s.
As to `CCCOC(C)OCCc1ccccc1` (stereo not shown) [(2-(1-propoxyethoxy)ethyl)benzene], the “EV (Experimental velocity)” value is listed as 6 cm/s.
Regarding `CC/C=C\CC/C=C/C=O` [(2E,6Z)-nona-2,6-dienal], the “EV (Experimental velocity)” value worked out at 5 cm/s.
For the compound `CC/C(C)=C\CC/C(C)=C\C#N` [(2Z,6Z)-3,7-dimethylnona-2,6-dienenitrile], the “EV (Experimental velocity)” value is 6 cm/s and 8 cm/s.
As for `O=CC1CC[C@H]2[C@@H]3CC[C@@H](C3)[C@@H]12` (stereo partly drawn) [(3aS,4R,7S,7aR)-octahydro-1H-4,7-methanoindene-1-carbaldehyde], the “EV (Experimental velocity)” value was 6 cm/s.
Take `C/C=C/c1ccc(OC)cc1` [(E)-1-methoxy-4-(prop-1-en-1-yl)benzene]: the “EV (Experimental velocity)” value came out at 6 cm/s.
Same read-out and setting: the same measure for `CC1=CCC(/C=C/C(C)(C)C(C)O)C1(C)C` (stereo not shown) [(E)-3,3-dimethyl-5-(2,2,3-trimethylcyclopent-3-en-1-yl)pent-4-en-2-ol]: 5 cm/s; for `CC(C)=CCC/C(C)=C/COC=O` [(E)-3,7-dimethylocta-2,6-dien-1-yl formate]: 5 cm/s; for `CC(=O)/C(C)=C/C1C(C)=CCCC1(C)C` (stereo not shown) [(E)-3-methyl-4-(2,6,6-trimethylcyclohex-2-en-1-yl)but-3-en-2-one]: 6 cm/s.
The same measure, in the same setting: the same measure for `CC1=CCC(/C=C/C(C)C(C)O)C1(C)C` (stereo not shown) [(E)-3-methyl-5-(2,2,3-trimethylcyclopent-3-en-1-yl)pent-4-en-2-ol]: 6 cm/s; for `CC(=O)/C=C/C1=C(C)CCCC1(C)C` [(E)-4-(2,6,6-trimethylcyclohex-1-en-1-yl)but-3-en-2-one]: 7 cm/s.
Still for that read-out and setting: the same measure for `CC(=O)/C=C/C1C(C)=CCCC1(C)C` (stereo not shown) [(E)-4-(2,6,6-trimethylcyclohex-2-en-1-yl)but-3-en-2-one]: 8 cm/s; for `O=CCC/C=C1\CC2CC1C1CCCC21` (stereo not shown) [(E)-4-(hexahydro-1H-4,7-methanoinden-5(6H)-ylidene)butanal]: 5 cm/s.
For the compound `CC/C=C(\C)C(O)CCCCC` (stereo not shown) [(E)-4-methyldec-3-en-5-ol], the “EV (Experimental velocity)” value came to 7 cm/s.
For the compound `CC(C)=CCC/C(C)=C/CCC=O` [(E)-5,9-dimethyldeca-4,8-dienal], the “EV (Experimental velocity)” value came to 5 cm/s.
Same read-out and setting: the same measure for `CCC/C=C/CCCCC=O` [(E)-dec-6-enal]: 8 cm/s; for `CCCCCCCCCC/C=C/C#N` [(E)-tridec-2-enenitrile]: 6 cm/s.
In the case of `C=CCCCCCCC/C=C/CC#N` [(E)-trideca-3,12-dienenitrile], the “EV (Experimental velocity)” value was 6 cm/s.
